The target of test [1] is SOX4 (mouse) (mouse (endogenous in APP/PS1 and wild-type mice)) (UniProt Q06831). As to the kind of experiment: co-IP; tissue of control, AD (APP/PS1) and AAV-TIP60-injected mice; tissue, buffer and precipitating antibody not told.
Test [2] addresses T1, SNAP23 (human (endogenous in SH-SY5Y)) (UniProt O00161).
T1 sequence: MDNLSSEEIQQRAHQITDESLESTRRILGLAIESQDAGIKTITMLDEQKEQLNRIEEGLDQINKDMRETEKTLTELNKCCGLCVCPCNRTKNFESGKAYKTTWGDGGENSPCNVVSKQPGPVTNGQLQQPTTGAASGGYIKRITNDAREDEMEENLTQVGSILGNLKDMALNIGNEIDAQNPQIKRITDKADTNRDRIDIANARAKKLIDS
As to the kind of experiment: co-IP; SH-SY5Y cells lysed in IP lysis buffer with protease and phosphatase inhibitor cocktails; antibodies and Protein A/G beads at 4°C; eluate by Western blot; cells untreated or treated with Aβ1-42, pcDNA3.1-TIP60, sh-SNAP23 or sh-IKKβ; the precipitating antibody is not told.

The chains behind the UniProt entries cited, without tags or fusion partners.
UniProt Q06831: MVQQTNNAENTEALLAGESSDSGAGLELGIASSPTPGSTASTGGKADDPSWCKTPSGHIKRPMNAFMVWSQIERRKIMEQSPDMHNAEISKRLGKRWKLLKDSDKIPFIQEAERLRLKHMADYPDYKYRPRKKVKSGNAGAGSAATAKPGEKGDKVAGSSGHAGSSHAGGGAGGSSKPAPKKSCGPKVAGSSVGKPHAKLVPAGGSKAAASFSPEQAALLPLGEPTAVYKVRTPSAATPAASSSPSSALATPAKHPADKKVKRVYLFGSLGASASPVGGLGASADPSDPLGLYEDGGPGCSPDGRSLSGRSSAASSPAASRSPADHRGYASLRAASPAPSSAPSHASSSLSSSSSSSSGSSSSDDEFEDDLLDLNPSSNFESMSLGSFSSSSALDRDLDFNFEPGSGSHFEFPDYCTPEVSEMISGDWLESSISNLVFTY
UniProt Q06945: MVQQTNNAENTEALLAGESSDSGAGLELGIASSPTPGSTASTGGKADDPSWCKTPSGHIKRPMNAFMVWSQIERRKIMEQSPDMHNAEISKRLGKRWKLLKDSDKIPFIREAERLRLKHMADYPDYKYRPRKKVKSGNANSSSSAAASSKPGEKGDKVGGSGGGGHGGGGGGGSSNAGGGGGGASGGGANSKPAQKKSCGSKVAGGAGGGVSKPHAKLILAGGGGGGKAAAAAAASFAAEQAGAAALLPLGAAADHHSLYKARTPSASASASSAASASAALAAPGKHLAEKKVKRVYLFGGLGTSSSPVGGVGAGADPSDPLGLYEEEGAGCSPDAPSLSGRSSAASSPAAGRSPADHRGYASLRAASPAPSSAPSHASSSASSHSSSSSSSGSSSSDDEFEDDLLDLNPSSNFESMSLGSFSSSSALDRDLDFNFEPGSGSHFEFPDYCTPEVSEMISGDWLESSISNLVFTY
UniProt Q8CHK4: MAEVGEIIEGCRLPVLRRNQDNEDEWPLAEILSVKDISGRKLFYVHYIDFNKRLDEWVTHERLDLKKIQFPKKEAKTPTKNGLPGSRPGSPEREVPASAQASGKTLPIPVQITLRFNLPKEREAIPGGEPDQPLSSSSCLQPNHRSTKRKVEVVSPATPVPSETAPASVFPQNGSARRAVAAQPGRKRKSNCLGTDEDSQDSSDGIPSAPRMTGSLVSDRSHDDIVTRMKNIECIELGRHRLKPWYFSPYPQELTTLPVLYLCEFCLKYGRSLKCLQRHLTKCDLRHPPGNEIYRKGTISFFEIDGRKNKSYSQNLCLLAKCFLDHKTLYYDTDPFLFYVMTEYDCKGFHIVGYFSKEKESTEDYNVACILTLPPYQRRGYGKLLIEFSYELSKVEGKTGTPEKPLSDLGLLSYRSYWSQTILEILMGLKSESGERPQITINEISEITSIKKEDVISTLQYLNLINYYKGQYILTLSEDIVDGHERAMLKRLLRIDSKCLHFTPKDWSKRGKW
UniProt P56962: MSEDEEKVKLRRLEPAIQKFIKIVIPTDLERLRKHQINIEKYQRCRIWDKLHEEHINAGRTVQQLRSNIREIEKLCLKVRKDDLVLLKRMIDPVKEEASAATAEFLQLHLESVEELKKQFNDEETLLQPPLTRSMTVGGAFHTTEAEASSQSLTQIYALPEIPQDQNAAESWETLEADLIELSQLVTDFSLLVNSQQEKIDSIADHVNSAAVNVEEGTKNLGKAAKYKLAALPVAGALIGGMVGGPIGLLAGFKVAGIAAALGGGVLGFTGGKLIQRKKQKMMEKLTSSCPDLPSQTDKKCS
UniProt Q92993: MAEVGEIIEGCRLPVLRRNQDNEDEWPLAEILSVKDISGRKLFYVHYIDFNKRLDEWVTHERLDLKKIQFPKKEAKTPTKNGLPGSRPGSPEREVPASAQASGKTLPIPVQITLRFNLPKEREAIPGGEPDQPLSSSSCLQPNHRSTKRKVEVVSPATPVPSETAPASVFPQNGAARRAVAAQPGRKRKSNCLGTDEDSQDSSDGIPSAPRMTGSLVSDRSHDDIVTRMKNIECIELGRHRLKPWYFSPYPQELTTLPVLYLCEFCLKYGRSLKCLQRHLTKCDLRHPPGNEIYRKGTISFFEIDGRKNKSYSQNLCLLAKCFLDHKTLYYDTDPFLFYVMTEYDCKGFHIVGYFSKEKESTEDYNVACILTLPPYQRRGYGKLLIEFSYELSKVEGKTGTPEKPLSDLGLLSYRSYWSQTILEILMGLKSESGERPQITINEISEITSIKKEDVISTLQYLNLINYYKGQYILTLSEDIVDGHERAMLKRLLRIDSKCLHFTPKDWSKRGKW

Test [3] has as its target SOX4 (human (endogenous in SH-SY5Y)) (UniProt Q06945). The test is described as above.

Results are given in words; binding and its absence hold for the method and conditions named. Binding seen in cells or lysates may run through a third protein. Some entries that bind do so weakly or less than the wild type.

As for “TIP60 (mouse) (from UniProt Q8CHK4 1-513) (enzyme)”, the binding result in test [1] is listed as “binds”.
Consider STX17 (from UniProt P56962 1-302), for which the binding result in test [2] was “binds”.
Consider “TIP60 (from UniProt Q92993 1-513) (enzyme)”, for which the binding entry in test [3] was “binds”.

For the origin of these results see article PMC11537769.
